Test in all cases: co-IP
Assay [1] deals with T1, TRAF6 (tumour necrosis factor (TNF) receptor associated factor 6), wild type, Myc tagged (UniProt P70196).
T1 sequence: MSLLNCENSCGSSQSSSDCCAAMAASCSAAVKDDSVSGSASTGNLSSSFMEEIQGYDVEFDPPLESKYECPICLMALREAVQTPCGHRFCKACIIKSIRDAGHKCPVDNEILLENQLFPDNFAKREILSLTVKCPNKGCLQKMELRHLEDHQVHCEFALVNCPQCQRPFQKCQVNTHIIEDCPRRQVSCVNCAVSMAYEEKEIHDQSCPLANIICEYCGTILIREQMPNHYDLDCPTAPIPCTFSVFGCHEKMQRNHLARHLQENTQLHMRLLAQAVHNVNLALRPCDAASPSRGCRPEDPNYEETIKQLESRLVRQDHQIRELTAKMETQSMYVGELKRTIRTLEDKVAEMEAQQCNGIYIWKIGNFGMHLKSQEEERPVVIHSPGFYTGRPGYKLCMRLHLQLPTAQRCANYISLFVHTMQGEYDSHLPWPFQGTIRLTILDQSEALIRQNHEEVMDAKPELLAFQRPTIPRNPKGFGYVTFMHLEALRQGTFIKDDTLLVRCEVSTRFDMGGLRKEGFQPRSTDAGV

Chains of the proteins cited; added tags and fusions are not shown. Residues count along the entry.
UniProt Q9CWX2, residues 25-328: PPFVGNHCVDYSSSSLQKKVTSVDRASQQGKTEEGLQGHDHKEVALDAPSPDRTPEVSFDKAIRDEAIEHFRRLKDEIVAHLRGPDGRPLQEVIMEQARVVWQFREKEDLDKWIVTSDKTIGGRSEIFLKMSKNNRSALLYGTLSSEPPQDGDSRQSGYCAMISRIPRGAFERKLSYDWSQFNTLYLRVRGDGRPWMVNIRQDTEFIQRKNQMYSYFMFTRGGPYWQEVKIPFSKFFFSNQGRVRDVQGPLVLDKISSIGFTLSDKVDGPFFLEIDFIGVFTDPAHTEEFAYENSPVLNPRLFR
UniProt Q9QZH6, residues 49-435: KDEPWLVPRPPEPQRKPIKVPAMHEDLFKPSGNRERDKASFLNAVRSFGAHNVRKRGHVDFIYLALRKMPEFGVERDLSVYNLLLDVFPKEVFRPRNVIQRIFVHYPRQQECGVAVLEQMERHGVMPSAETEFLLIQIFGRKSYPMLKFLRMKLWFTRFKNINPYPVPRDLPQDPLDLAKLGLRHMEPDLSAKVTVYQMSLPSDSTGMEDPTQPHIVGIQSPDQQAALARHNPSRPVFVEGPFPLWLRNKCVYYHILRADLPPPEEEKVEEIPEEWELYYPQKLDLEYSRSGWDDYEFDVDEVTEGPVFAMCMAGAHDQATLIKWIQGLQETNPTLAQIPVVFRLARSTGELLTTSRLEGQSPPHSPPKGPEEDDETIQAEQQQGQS

Assay [2] concerns the target NDUFAF1, wild type, Myc tagged (UniProt Q9CWX2).
The target in assay [3] is T2, ACAD9, wild type, Myc tagged (UniProt Q8JZN5).
T2 sequence: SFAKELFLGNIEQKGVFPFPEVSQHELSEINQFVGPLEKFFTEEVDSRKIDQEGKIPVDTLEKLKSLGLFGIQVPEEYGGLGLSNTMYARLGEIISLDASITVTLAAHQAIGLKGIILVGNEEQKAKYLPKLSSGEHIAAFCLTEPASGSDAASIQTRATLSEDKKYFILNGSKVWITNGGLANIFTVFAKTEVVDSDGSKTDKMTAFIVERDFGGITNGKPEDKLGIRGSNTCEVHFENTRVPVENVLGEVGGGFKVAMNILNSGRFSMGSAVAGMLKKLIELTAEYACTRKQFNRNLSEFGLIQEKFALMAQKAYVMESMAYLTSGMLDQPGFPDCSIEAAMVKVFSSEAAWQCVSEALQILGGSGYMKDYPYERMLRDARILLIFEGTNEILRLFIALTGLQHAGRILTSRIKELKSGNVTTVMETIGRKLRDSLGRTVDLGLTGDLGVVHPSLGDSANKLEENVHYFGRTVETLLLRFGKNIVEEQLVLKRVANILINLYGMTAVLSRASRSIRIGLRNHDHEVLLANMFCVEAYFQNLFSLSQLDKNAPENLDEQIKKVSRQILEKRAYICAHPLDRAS

The target in assay [4] is Evolutionarily conserved signalling intermediate in Toll pathway (ECSIT), wild type, 6xHis tagged (mouse) (UniProt Q9QZH6).
Assay [5] shares this target. The source holds these as a separate data set.

Where two headings read alike, the source gives them in different places. These are yes or no findings as the source states them, for the method shown. Binding seen in cells or lysates may run through a third protein. Some binding calls cover weakened binding; strength is not graded here. For some assays here: Tags and fused reporters may be left off the sequences shown.

With “Evolutionarily conserved signalling intermediate in Toll pathway (ECSIT), wild type, 6xHis tagged (from UniProt Q9QZH6 49-435)”, the binding entry in assay [1], in assay [2] and in assay [3] was “binds” each time.

Regarding “NDUFAF1, wild type, Myc tagged (from UniProt Q9CWX2 25-328)”, the binding entry in assay [4] is recorded as “binds”.

B1: ACAD9, wild type, Myc tagged (protein, UniProt Q8JZN5 42-625)
chain: SFAKELFLGNIEQKGVFPFPEVSQHELSEINQFVGPLEKFFTEEVDSRKIDQEGKIPVDTLEKLKSLGLFGIQVPEEYGGLGLSNTMYARLGEIISLDASITVTLAAHQAIGLKGIILVGNEEQKAKYLPKLSSGEHIAAFCLTEPASGSDAASIQTRATLSEDKKYFILNGSKVWITNGGLANIFTVFAKTEVVDSDGSKTDKMTAFIVERDFGGITNGKPEDKLGIRGSNTCEVHFENTRVPVENVLGEVGGGFKVAMNILNSGRFSMGSAVAGMLKKLIELTAEYACTRKQFNRNLSEFGLIQEKFALMAQKAYVMESMAYLTSGMLDQPGFPDCSIEAAMVKVFSSEAAWQCVSEALQILGGSGYMKDYPYERMLRDARILLIFEGTNEILRLFIALTGLQHAGRILTSRIKELKSGNVTTVMETIGRKLRDSLGRTVDLGLTGDLGVVHPSLGDSANKLEENVHYFGRTVETLLLRFGKNIVEEQLVLKRVANILINLYGMTAVLSRASRSIRIGLRNHDHEVLLANMFCVEAYFQNLFSLSQLDKNAPENLDEQIKKVSRQILEKRAYICAHPLDRAS
B1: the binding result in assay [5] is “binds”.

The values above are taken from paper doi:10.1101/2021.04.01.438015.
